Source: PubChem BioAssay AID743255 (National Center for Advancing Translational Sciences (NCATS), 2014)
Out of some 390,000 compounds screened, about 910 (0.23%) were called active. Inconclusive results, whose numbers are uncertain, are shown with a selection of clear calls. Calls follow the shape of the dose curve; as a rule, active = well fitted inhibition curve with a large enough effect; inconclusive = small, poorly fitted or top-dose-only effect; inactive = no such curve, though single readings can be large or run the other way. Potencies beside an inconclusive call are fits to weak or partial responses and may not hold up.
Also: nearly all actives have a fitted effect of over 60% in size.
Potency is read from the fitted curve at half-maximal effect.

By UniProt entry, the sequences of proteins in these tests, tags left out. Where a name states a change or a piece, a line headed by the entry shows the natural chain unless it says otherwise.
UniProt O94782: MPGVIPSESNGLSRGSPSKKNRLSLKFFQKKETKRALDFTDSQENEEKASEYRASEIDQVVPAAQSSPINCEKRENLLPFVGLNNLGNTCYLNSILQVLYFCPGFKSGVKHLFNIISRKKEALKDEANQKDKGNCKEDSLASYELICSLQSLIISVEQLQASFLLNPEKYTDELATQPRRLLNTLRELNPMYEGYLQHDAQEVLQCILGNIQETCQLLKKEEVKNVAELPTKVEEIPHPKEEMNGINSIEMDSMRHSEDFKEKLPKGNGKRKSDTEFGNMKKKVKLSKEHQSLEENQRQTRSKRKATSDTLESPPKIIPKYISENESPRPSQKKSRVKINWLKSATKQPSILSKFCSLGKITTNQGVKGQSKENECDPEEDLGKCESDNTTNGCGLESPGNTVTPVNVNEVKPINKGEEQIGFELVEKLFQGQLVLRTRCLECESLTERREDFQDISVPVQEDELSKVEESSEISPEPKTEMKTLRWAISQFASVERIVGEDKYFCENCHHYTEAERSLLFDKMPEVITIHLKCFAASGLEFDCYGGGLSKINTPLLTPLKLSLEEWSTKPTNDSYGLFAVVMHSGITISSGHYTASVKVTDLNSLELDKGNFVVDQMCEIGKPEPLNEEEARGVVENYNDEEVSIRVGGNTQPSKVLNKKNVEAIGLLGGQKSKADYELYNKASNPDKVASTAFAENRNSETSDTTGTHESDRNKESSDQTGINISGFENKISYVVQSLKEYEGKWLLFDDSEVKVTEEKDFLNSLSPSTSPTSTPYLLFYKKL

The compounds below were run against Ubiquitin carboxyl-terminal hydrolase 1 (Homo sapiens) (UniProt O94782) (assay: Inhibitors of USP1/UAF1: Primary Screen). Details: recombinant USP1/UAF1, Ub-Rhodamine cleavage fluorescence; series mostly up to 57.1 µM.
Outline: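 USP1/UAF1 complex (1 nM) preincubated 15 min at room temperature with compound, then Ub-Rho substrate (150 nM final) added. Kinetic fluorescence at 480/540 nm over 6 reads at 60 s intervals; 50 mM HEPES pH 7.8, 0.5 mM EDTA, 0.1 mg/ml BSA, 1 mM TCEP, 0.01% Tween-20.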
In the case of `O=[N+]([O-])c1cccc(OCC(O)CN2CCN(S(=O)(=O)c3cc(Cl)ccc3Cl)CC2)c1` (centres undefined), the Potency was inconclusive: 44.7 µM [inhibitor, partial curve]. In the case of `CCOc1ccccc1CN1C(=O)c2ccccc2C1C(=O)NC1CCCCCC1` (centres undefined), the Potency was inconclusive: 2.82 µM [inhibitor, partial curve]. For `CC(=O)Nc1ccc(Nc2nc(-c3sc(NC(C)=O)nc3C)cs2)cc1`, the Potency was “inactive”. In the case of `Cc1ccc(-c2noc(CN(C3CCCCC3)S(=O)(=O)c3ccc(F)cc3)n2)cc1`, the Potency was “inactive”. `CC(=O)Nc1ccc(NC(=O)CSc2cn(CC(=O)N(C(C)C)C(C)C)c3ccccc23)cc1` was tested, and the Potency was “inactive”. For `CCOC1OC(=O)C(Cl)=C1Nc1cc(C)ccc1C` (centres undefined), the Potency was inconclusive: 44.7 µM [inhibitor, single point]. For `C[C@H]1CN([C@@H](C)CO)C(=O)c2cccc(NC(=O)C3CC3)c2O[C@H]1CN(C)CC1CCCCC1`, the Potency was inconclusive: 10 µM [inhibitor, full curve]. In the case of `CCOc1c2ccc(C(=O)NCc3ccc4c(c3)OCO4)cc2nn1CCOC`, the Potency was inconclusive: 35.5 µM [inhibitor, partial curve]. In the case of `COc1ccc2noc3c2c1C(=O)c1ccccc1-3`, the Potency was active: 3.98 µM. For `c1ccc2sc(N3CCCCC3)nc2c1`, the Potency was inconclusive: 44.7 µM [inhibitor, single point]. With `O=S(=O)(c1cc(O)ccc1O)c1cccc2c(S(=O)(=O)c3cc(O)ccc3O)cccc12` the Potency was inconclusive: 50.1 µM [inhibitor, partial curve, poor fit]. For `Cc1nc(CNS(=O)(=O)c2cccnc2)cs1`, the Potency was inconclusive: 5.62 µM [inhibitor, partial curve]. With `Cc1cc(C(=O)N/N=C2\CC(=O)c3ccccc32)c(C)n1-c1ccccc1` the Potency was inconclusive: 39.8 µM [inhibitor, partial curve]. In the case of `CCOC(=O)CNC(=O)CC(c1cc(OC)c(OC)c(OC)c1)N1Cc2ccccc2C1=O` (centres undefined), the Potency was “inactive”. For `O=C(N/N=C/c1cccs1)c1cccc(S(=O)(=O)Nc2ccc(Cl)cc2)c1`, the Potency was inconclusive: 10 µM [inhibitor, partial curve, poor fit]. `CCCn1c(N)c(NCCN2CCOCC2)c(=O)[nH]c1=O` was tested, and the Potency was inconclusive: 6.31 µM [inhibitor, partial curve, poor fit]. With `CC(C)(C)NC(=O)CSc1nnc(SCC(=O)NC(C)(C)C)s1` the Potency was inconclusive: 5.01 µM [inhibitor, full curve]. With `CCOC(=O)CC(/C(C)=N\O)c1ccccc1` (centres undefined) the Potency was “inactive”. `CCCOC(=O)c1ccc(NS(=O)(=O)c2cccs2)cc1` was tested, and the Potency was inconclusive: 31.6 µM [inhibitor, partial curve]. With `CCCCn1nc(NC(=O)c2cccc(Cl)c2)c2cc3ccc(C)cc3nc21` the Potency was inconclusive: 6.31 µM [inhibitor, single point]. With `C[C@H]1CN([C@@H](C)CO)C(=O)CCCn2cc(nn2)CO[C@@H]1CN(C)C(=O)c1cc(-c2ccccc2)on1` the Potency was inconclusive: 7.08 µM [inhibitor, partial curve, poor fit]. In the case of `COc1cc(/C=N/NC(=S)NC2CC3C=CC2C3)cc(OC)c1OC` (centres undefined), the Potency was inconclusive: 35.5 µM [inhibitor, partial curve]. With `COC(=O)C=C1CCC2C3CCC4=CC(=O)CCC4(C)C3C(=O)CC12C` (centres undefined) the Potency was inconclusive: 50.1 µM [inhibitor, partial curve, poor fit]. `Cn1nnnc1SCC(=O)N1CCN(C(=O)c2ccco2)CC1` was tested, and the Potency was “inactive”. For `COC(=O)c1cccc(CN2C(=O)SC(Nc3ccc(Br)cc3)C2=O)c1` (centres undefined), the Potency was “inactive”. With `Cc1c(-c2ccc(Cl)cc2)c(=O)oc2c(CN3CCOCC3)c(O)ccc12` the Potency was inconclusive: 56.2 µM [inhibitor, partial curve, poor fit]. For `O=C(N/N=C1\C2CN3CCN(C2)CC1(c1ccccc1)C3)c1ccc(F)cc1`, the Potency was inconclusive: 7.08 µM [inhibitor, partial curve, poor fit]. `O=C(CSc1ccc(Cl)cc1)N/N=C/c1ccc([N+](=O)[O-])o1` was tested, and the Potency was “inactive”. `CCC(C)[C@@H](CN)NCC1(c2ccccc2)CC1` (some centres undefined) was tested, and the Potency was inconclusive: 44.7 µM [inhibitor, partial curve, poor fit]. `Cc1ccc(S(=O)(=O)c2nc(Nc3nccs3)sc2Cl)cc1` was tested, and the Potency was “inactive”. With `CCCCOc1ccc(C(=O)Nc2onc3c2CCCC3)cc1` the Potency was inconclusive: 0.282 µM [inhibitor, full curve, poor fit]. In the case of `O=C1CC(N2CCN(C3CC(=O)N(CCc4ccccc4)C3=O)CC2)C(=O)N1CCc1ccccc1` (centres undefined), the Potency was inconclusive: 14.1 µM [inhibitor, partial curve]. For `COC(=O)C1CCN(C(c2ccccc2Cl)c2sc3nc(-c4ccco4)nn3c2O)CC1` (centres undefined), the Potency was “inactive”. In the case of `COCc1ccc(-c2c(-c3cccc(OC)c3)sc3ccc(OC)cc23)cc1`, the Potency was inconclusive: 0.251 µM [inhibitor, full curve, poor fit]. In the case of `COC(=O)c1ccc(CSc2nnc(Nc3ccc(OC)cc3)s2)o1`, the Potency was “inactive”. With `CCOC(=O)/C=C/c1ccc2c(c1)S(=O)(=O)N(c1cccc(OC)c1)[C@H]2CC(=O)OCC` the Potency was inconclusive: 39.8 µM [inhibitor, partial curve]. For `Cc1ccc(C)c(NC(=O)Cn2cnc3nc4c(cc3c2=O)CCCC4)c1`, the Potency was inconclusive: 15.8 µM [inhibitor, partial curve, poor fit]. For `COc1ccc(OC)c2c(=O)cc(C(=O)O)[nH]c12`, the Potency was inconclusive: 0.794 µM [inhibitor, full curve, poor fit]. For `CCOC(=O)c1c(C)oc2ccc(OCc3cc(C(=O)OC)oc3C)cc12`, the Potency was inconclusive: 31.6 µM [inhibitor, partial curve]. For `Clc1cccc2sc(N3CCN(c4ccccc4)CC3)nc12`, the Potency was inconclusive: 35.5 µM [inhibitor, partial curve]. With `CCOC(=O)c1cc(NC(=O)c2ccc(OC)cc2)c(=O)n2c1oc1ccc(Cl)cc12` the Potency was “inactive”. `CNC(=O)CN1C(=O)c2cccc3cccc1c23` was tested, and the Potency was “inactive”. `O=[N+]([O-])c1ccc(-c2ccc(/C=N/Nc3nc(N4CCCC4)nc(N4CCCC4)n3)o2)cc1` was tested, and the Potency was inconclusive: 44.7 µM [inhibitor, partial curve]. `COC(=O)CCC(=O)OC1(C)C(=O)C=C2C=C(C3CC3)N(c3ccccc3)C=C2C1=O` (centres undefined) was tested, and the Potency was inconclusive: 35.5 µM [inhibitor, partial curve]. In the case of `CC(C)(C)c1ccc(C(=O)CC(Sc2ccc(Cl)cc2)C(=O)O)cc1` (centres undefined), the Potency was inconclusive: 44.7 µM [inhibitor, partial curve]. `O=C(CCC1CCCCC1)NCCN1C2=NC[C@H](Cc3ccccc3)N2C[C@H]1Cc1ccc(O)cc1` was tested, and the Potency was “inactive”. With `Nc1cc(C(=O)O)c(N)c2c1C(=O)c1ccccc1C2=O` the Potency was inconclusive: 28.2 µM [inhibitor, partial curve]. With `COc1ccc(NC(=O)c2sc3nc(C)c(C(=O)Nc4ccc(C)cc4C)c(-c4cccs4)c3c2N)cc1` the Potency was inconclusive: 31.6 µM [inhibitor, partial curve, poor fit]. `C[C@H](CO)N1C[C@H](C)[C@H](CN(C)C(=O)Nc2ccc(C(F)(F)F)cc2)Oc2c(NC(=O)c3ccncc3)cccc2C1=O` was tested, and the Potency was inconclusive: 39.8 µM [inhibitor, partial curve, poor fit]. `O=C1/C(=C/c2ccccc2)CCC1C1CCCC1` (centres undefined) was tested, and the Potency was “inactive”. `Cn1cnc([N+](=O)[O-])c1S(=O)(=O)Oc1cccc2ccccc12` was tested, and the Potency was inconclusive: 22.4 µM [inhibitor, single point]. In the case of `COc1ccc(-n2nc(C(=O)NCC(=O)Nc3cc(OC)c(OC)c(OC)c3)c3ccccc3c2=O)cc1OC`, the Potency was inconclusive: 0.891 µM [inhibitor, full curve]. In the case of `CC(Oc1ccccc1)c1ccnc2nc(N3CCOCC3)nn12` (centres undefined), the Potency was “inactive”. With `CCOc1ccc(-c2cc(C(=O)N3CCN(c4ccc(C)cc4)C(C)C3)c3ccccc3n2)cc1` (centres undefined) the Potency was inconclusive: 3.98 µM [inhibitor, single point]. For `O=C(NNc1ncnc2c1cnn2-c1ccccc1)c1cccs1`, the Potency was inconclusive: 7.08 µM [inhibitor, partial curve, poor fit]. `COc1ccc(NC(=S)NC(NC(=O)CCl)C(Cl)(Cl)Cl)c([N+](=O)[O-])c1` (centres undefined) was tested, and the Potency was inconclusive: 35.5 µM [inhibitor, partial curve]. In the case of `N#Cc1c(N(CCO)CCO)nc(N)c2c(N)nc3c(c12)CC(=O)N3Cc1cccs1`, the Potency was inconclusive: 35.5 µM [inhibitor, partial curve, poor fit]. In the case of `COc1ccc(NC(=O)Cc2cccs2)cc1S(=O)(=O)N1CCCCC1`, the Potency was inconclusive: 11.2 µM [inhibitor, partial curve]. For `O=C(N/N=C/C1=Cc2ccccc2OC1)c1ccncc1`, the Potency was inconclusive: 28.2 µM [inhibitor, partial curve, poor fit]. For `COc1ccc(SC[C@H](Cc2ccccc2)N2CC[C@@H](C(C)(C)C)CCC2=O)cc1`, the Potency was inconclusive: 0.282 µM [inhibitor, full curve, poor fit]. For `O=C(Nc1ccc(S(=O)(=O)Nc2nccs2)cc1)c1cc(-c2ccccc2)nc2ccccc12`, the Potency was “inactive”. For `COc1ccc(C2=NOC(Cn3nc(-c4ccccc4)cc3C(=O)NCc3cccs3)C2)cc1` (centres undefined), the Potency was inconclusive: 4.47 µM [inhibitor, single point]. In the case of `COc1ccc(NC(=O)c2cc(S(=O)(=O)N3CCCC3)c[nH]2)cc1`, the Potency was inconclusive: 10 µM [inhibitor, partial curve, poor fit]. With `COc1ccc(-c2noc(-c3ccc(N4CCC(C)CC4)c([N+](=O)[O-])c3)n2)cc1OC` the Potency was “inactive”.
